Experimental data published in PubChem BioAssay AID588590 (National Center for Advancing Translational Sciences (NCATS), 2011).
The campaign covered roughly 390,000 compounds. About 4,000 (1%) were called active. The shares of active, inactive and inconclusive entries below differ from those in the screen. Calls come from the whole dose curve; as a rule, active = well fitted inhibition curve with a large enough effect; inconclusive = small, poorly fitted or top-dose-only effect, or another doubt; inactive = no such curve, though single readings can be large or run the other way. Where the call is inconclusive, the potency comes from a doubtful curve fit.
Potency is the fitted concentration of half-maximal effect.

Chains of the proteins cited; added tags and fusions are not shown. Lines headed by an entry give the natural chain unless they say otherwise; changes in a name come on top.
UniProt Q9UNA4: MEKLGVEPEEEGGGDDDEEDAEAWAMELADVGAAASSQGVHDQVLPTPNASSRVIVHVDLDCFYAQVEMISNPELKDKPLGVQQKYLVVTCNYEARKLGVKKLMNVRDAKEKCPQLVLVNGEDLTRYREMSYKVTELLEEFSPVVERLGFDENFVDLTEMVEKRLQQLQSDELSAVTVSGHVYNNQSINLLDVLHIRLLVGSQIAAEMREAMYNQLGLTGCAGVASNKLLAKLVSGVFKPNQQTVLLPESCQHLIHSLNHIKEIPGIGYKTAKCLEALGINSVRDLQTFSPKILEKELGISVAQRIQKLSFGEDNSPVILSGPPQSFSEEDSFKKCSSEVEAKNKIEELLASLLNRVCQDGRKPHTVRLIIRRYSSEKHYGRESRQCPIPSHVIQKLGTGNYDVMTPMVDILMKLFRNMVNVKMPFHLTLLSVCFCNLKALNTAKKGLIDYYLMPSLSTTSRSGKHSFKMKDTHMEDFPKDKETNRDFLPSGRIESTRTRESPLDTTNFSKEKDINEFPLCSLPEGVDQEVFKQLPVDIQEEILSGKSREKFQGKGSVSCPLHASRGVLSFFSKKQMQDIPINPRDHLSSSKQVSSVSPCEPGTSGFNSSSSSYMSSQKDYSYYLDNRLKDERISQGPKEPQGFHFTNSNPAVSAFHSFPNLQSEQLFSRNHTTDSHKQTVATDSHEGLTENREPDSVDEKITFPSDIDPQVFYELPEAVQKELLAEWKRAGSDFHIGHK

Each compound was assayed against DNA polymerase iota (Homo sapiens) (UniProt Q9UNA4) (assay: qHTS for Inhibitors of Polymerase Iota). Conditions: Pol iota fluorescent replication assay, 10 min; series mostly up to 115 µM.
Summary of the method: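 Pol iota at 10 nM preincubated 15 min with compounds at room temperature; reaction started with fluorescent substrate, 50 nM final. Fluorescence read kinetically at 0 and 10 min; buffer-only wells as negative control.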
`CC(C)C(=O)Nc1ccc(N2CCN(S(C)(=O)=O)CC2)cc1` was tested, and the Potency was inconclusive: 39.8 µM [inhibitor, single point].
`CC1CN(C(=O)N2CCC(C(=O)NCc3ccco3)CC2)c2cc(Cl)ccc2O1` (stereo unspecified) was tested, and the Potency was inconclusive: 79.4 µM [inhibitor, single point].
`COc1ccccc1CNC(=O)COC(=O)c1ccc(C)c(S(=O)(=O)N2CCCCC2)c1` was tested, and the Potency was inconclusive: 89.1 µM [inhibitor, single point].
`COc1ccc(Br)cc1C1NC(c2ccc3c(c2)OCO3)=CC(c2cc(Cl)ccc2O)N1` (stereo unspecified) was tested, and the Potency was inconclusive: 15.8 µM [inhibitor, full curve, poor fit].
In the case of `Cc1cccc(N2CC(C(=O)NCC3COc4ccccc4O3)CC2=O)c1C` (stereo unspecified), the Potency is reported as inconclusive: 100 µM [inhibitor, partial curve, poor fit].
In the case of `Clc1ccc(/C=C/c2ccc3ccccc3n2)cc1Cl`, the Potency is reported as “inactive”.
In the case of `COc1ccc(C2=NCCn3nc4cc(OC)ccc4c32)cc1`, the Potency is reported as “inactive”.
With `CCOc1ccc(C(=O)NCC(=O)N2CCC3CCCCC3C2)cc1OCC` (stereo unspecified) the Potency was “inactive”.
In the case of `O=C(CN1C(=O)c2ccccc2S1(=O)=O)NCc1ccccc1Cl`, the Potency is reported as “inactive”.
With `COc1ccccc1N(CC(=O)Nc1cccnc1)S(=O)(=O)c1ccccc1` the Potency was inconclusive: 89.1 µM [inhibitor, partial curve, poor fit].
`Cc1cc(Cl)n2c(nc3ccccc32)c1C#N` was tested, and the Potency was active: 22.4 µM.
For `Cc1ccc(CCNC(=O)c2ccc(CSCc3ccccc3C)o2)cc1`, the Potency was inconclusive: 89.1 µM [inhibitor, partial curve, poor fit].
With `Cc1cc(C)c(C)c(OCCNCc2ccccc2)c1` the Potency was “inactive”.
In the case of `CC(=O)c1nn(-c2ccc(OC(F)(F)F)cc2)nc1Nc1ccc(C)cc1`, the Potency is reported as “inactive”.
For `CCOC(=O)C1CCN(CC(=O)c2ccc(O)c(C)c2O)CC1`, the Potency was inconclusive: 7.94 µM [inhibitor, full curve, poor fit].
For `COC(=O)c1cnn2c(C(F)(F)F)cc(-c3ccco3)nc12`, the Potency was inconclusive: 3.55 µM [inhibitor, full curve, poor fit].
For `Cc1noc(C)c1C(=O)NNc1cc(Cl)ccc1Cl`, the Potency was inconclusive: 17.8 µM [inhibitor, partial curve, poor fit].
In the case of `COCCCN1C(=O)C2C(C(=O)Nc3cc(C)cc(C)c3)C3C=CC2(O3)C1C(=O)NC1CCCCC1` (stereo unspecified), the Potency is reported as active: 12.6 µM.
`COc1ccccc1CNC(=O)c1sc2nc3n(c(=O)c2c1C)CCC3` was tested, and the Potency was “inactive”.
`CCNC(=O)c1sccc1-n1cccc1` was tested, and the Potency was “inactive”.
With `N#CCCCn1c(=O)oc2ccccc21` the Potency was inconclusive: 89.1 µM [inhibitor, partial curve, poor fit].
